No constants are given. Whether binding was seen depends on the method and setting. In cells and extracts the contact can be indirect. Some binding calls cover weakened binding; strength is not graded here.
Tests used:
[1] = molecular target: HA-PD-L1 (UniProt Q9NZQ7); experiment: co-IP
[2] = molecular target: LIMD1 (human (endogenous in A549)) (UniProt Q9UGP4); experiment: co-IP

Protein sequences, listed by entry. Tags and fused reporters are not part of them. Residues count along the entry.
UniProt Q9NZQ7, residues 19-290: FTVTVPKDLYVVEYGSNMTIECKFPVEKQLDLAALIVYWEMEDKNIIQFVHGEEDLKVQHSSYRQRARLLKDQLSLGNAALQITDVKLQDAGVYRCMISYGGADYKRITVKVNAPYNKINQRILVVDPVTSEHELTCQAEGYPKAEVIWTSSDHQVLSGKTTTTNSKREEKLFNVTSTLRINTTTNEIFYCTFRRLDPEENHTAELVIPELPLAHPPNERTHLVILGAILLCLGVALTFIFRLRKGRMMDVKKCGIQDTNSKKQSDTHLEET
UniProt Q9UGP4: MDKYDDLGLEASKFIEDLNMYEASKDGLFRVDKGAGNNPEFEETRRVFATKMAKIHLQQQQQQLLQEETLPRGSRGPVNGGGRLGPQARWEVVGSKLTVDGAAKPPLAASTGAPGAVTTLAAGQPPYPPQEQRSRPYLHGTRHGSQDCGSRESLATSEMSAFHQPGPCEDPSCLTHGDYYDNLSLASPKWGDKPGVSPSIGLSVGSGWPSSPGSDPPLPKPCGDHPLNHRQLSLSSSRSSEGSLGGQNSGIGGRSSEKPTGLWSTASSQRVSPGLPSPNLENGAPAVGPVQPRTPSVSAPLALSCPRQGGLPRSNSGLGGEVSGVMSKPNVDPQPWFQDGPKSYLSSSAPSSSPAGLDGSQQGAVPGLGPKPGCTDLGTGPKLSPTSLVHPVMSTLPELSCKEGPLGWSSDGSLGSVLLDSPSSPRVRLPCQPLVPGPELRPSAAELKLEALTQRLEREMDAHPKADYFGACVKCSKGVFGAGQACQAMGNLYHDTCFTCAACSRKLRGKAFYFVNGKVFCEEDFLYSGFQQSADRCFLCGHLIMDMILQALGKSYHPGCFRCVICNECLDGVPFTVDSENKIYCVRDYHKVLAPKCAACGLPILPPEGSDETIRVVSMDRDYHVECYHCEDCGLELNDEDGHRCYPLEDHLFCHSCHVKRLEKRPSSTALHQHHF
UniProt Q9Y4X5: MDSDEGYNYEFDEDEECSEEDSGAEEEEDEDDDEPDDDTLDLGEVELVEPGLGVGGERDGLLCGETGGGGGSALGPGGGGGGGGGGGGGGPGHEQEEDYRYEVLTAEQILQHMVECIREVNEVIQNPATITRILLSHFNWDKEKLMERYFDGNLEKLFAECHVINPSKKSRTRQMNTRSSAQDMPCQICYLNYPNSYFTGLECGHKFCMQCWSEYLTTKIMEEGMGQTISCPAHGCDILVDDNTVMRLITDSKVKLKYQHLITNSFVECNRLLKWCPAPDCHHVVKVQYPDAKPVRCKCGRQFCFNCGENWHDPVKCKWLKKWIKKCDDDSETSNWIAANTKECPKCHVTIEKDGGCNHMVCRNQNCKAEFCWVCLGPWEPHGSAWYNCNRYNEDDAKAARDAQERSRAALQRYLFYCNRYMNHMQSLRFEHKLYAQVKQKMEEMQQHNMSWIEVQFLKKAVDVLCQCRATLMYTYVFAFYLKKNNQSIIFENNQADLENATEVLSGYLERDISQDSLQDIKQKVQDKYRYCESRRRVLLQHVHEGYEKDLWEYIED

ARIH1 (from UniProt Q9Y4X5 1-557) (enzyme)
binding [1]: binds | binding [2]: binds

Reference: paper doi:10.1101/2025.02.06.636805
